Laboratory results: PubChem BioAssay AID1671190 (National Center for Advancing Translational Sciences (NCATS), 2021)
Screen size: about 580,000 compounds; about 6,100 (1.1%) were called active. Inconclusive results, whose numbers are uncertain, are shown with a selection of clear calls. Calls come from the whole dose curve; as a rule, active = well fitted inhibition curve with a large enough effect; inconclusive = small, poorly fitted or top-dose-only effect, or another doubt; inactive = no such curve, though single readings can be large or run the other way. A potency beside an inconclusive call is a rough fit, not a confirmed value.

Protein sequences, listed by entry. Tags and fused reporters are not part of them.
UniProt P18054, whole entry, looked up: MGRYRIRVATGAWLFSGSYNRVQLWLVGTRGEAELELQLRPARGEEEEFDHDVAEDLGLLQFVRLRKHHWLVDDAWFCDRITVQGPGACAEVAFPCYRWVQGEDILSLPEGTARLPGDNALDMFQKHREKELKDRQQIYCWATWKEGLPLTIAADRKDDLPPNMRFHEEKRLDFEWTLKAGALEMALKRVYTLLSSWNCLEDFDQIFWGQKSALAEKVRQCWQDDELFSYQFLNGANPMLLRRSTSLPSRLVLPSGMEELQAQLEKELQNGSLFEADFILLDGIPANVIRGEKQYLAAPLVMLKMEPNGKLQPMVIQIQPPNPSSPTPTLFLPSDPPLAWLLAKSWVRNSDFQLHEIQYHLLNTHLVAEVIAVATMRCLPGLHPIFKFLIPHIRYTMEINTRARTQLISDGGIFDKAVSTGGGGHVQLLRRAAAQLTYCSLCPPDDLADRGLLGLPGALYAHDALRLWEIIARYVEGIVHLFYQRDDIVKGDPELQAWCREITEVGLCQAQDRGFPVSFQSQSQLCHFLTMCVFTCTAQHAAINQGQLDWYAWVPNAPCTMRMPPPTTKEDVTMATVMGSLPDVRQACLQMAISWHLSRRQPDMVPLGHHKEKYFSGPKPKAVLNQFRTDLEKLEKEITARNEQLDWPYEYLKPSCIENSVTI

Target: Polyunsaturated fatty acid lipoxygenase ALOX12 (Homo sapiens) (UniProt P18054)
Assay: Primary qHTS assay for inhibitors of human arachidonate 12S-lipoxygenase (ALOX12): Round 2
Conditions: purified 12hLO, xylenol orange hydroperoxide absorbance; activity change, negative = inhibition: at 108 µM (top of the series) unless noted
Procedure, shortened: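 Purified human 12hLO at 150 nM in 25 mM Hepes, 0.01% Triton X-100, pH 7.0, preincubated 15 min at room temperature with compound. Reaction started with 40 uM arachidonic acid, 30 min at room temperature. Hydroperoxide measured by Fe-xylenol orange, 573/405 nm absorbance ratio.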
% is set by controls: 0 for no effect and ±100 for the full control effect; potency is the fitted concentration of half-maximal effect.

Row | SMILES | Potency | activity change, negative = inhibition
1 | N=C(N)c1ccc2cc(OC(=O)c3ccc(N=C(N)N)cc3)ccc2c1 | inconclusive: 7.69 µM [inhibitor, partial curve, poor fit] | –
2 | CC(=O)N1CCCc2cc(S(=O)(=O)N(C)CC(=O)Nc3ccc(Cl)cc3C)ccc21 | inconclusive: 28.2 µM [inhibitor, partial curve, poor fit] | –
3 | Cc1cc(C)c(C)c(S(=O)(=O)N2CCC(C(=O)Nc3ccc(S(=O)(=O)N4CCOCC4)cc3)CC2)c1C | inconclusive: 89.1 µM [inhibitor, single point] | –
4 | CC(C)CC(CC(C)C)=NNC(=O)c1ccc2c(c1)OCO2 | – | inactive: 0%
5 | O=C(Cn1ncc2c(=O)oc3ccccc3c21)NCc1ccc(Cl)cc1 | inconclusive: 25.1 µM [inhibitor, full curve, poor fit] | –
6 | Fc1ccc(CNC[C@H]2Cn3c(-c4ccc5c(c4)OCCO5)cnc3CO2)cc1 | inconclusive: 126 µM [inhibitor, single point] | –
7 | N#CC1(NC(=O)CSc2nc(-c3cccs3)nc3ccccc23)CCCCC1 | inconclusive: 89.1 µM [inhibitor, single point] | –
8 | Cc1nn(-c2ccccc2)c2c1C(c1ccco1)C(C#N)=C(N)O2 (stereo not given) | inconclusive: 100 µM [inhibitor, single point] | –
9 | NC(=O)C1(N2CCCCC2)CCN(CCCN2c3ccccc3CCc3ccc(Cl)cc32)CC1 | inconclusive: 14.4 µM [inhibitor, partial curve, poor fit] | –
10 | CC1Cc2c(nc(Cl)c(C#N)c2C#N)C([N+](=O)[O-])([N+](=O)[O-])C1 (stereo not given) | inconclusive: 0.398 µM [inhibitor, full curve] | –
11 | O=C(O)c1cccc(-c2ccc(/C=N/n3cnnc3)o2)c1 | inconclusive: 28.2 µM [inhibitor, single point] | –
12 | COc1ccc(CC(N)c2csc(NC(=O)NCCc3ccccc3)n2)cc1 (stereo not given) | inconclusive: 44.7 µM [inhibitor, partial curve, poor fit] | –
13 | Nc1cc(S(=O)(=O)O)cc2cccc(S(=O)(=O)O)c12 | inconclusive: 5.62 µM [inhibitor, full curve, poor fit] | –
14 | CCOC(=O)C1CCCCN1Cc1ccc(F)c(Br)c1 (stereo not given) | inconclusive: 0.398 µM [inhibitor, full curve, poor fit] | –
15 | c1ccc2cc3n[nH]nc3cc2c1 | – | inactive: -26.6%
16 | S=C(NCc1cccs1)Nc1cc(Cl)cc(Cl)c1 | inconclusive: 28.2 µM [inhibitor, single point] | –
17 | COc1ccc2[nH]cc(/C=C/c3cc[n+](C)cc3)c2c1 | inconclusive: 35.5 µM [inhibitor, single point] | –
18 | CCCn1nc(C)cc1CN(C)c1ccc(NS(=O)(=O)CC)cc1C(=O)O | inconclusive: 2.51 µM [inhibitor, full curve, poor fit] | –
19 | O=C(Nc1cccc(S(=O)(=O)NC2=NCCC2)c1)c1cc(-c2ccco2)nc2ccccc12 | inconclusive: 25.1 µM [inhibitor, full curve] | –
20 | N#C/C(=C(/O)CSc1n[nH]c(N)n1)c1nc2ccccc2[nH]1 | – | inactive: 0.115%
21 | CCCN(Cc1ccc(F)cc1)C(=O)c1cnc(-c2ccc(C)cc2)[nH]c1=O | – | inactive: 43.5%
22 | OCc1ccc(-c2nc3ccccc3s2)o1 | inconclusive: 44.7 µM [inhibitor, partial curve, poor fit] | –

Part of the list above in order of length of the SMILES, ascending.
Row | SMILES | Potency | activity change, negative = inhibition
15 | c1ccc2cc3n[nH]nc3cc2c1 | – | inactive: -26.6%
22 | OCc1ccc(-c2nc3ccccc3s2)o1 | inconclusive: 44.7 µM [inhibitor, partial curve, poor fit] | –
16 | S=C(NCc1cccs1)Nc1cc(Cl)cc(Cl)c1 | inconclusive: 28.2 µM [inhibitor, single point] | –
14 | CCOC(=O)C1CCCCN1Cc1ccc(F)c(Br)c1 (stereo not given) | inconclusive: 0.398 µM [inhibitor, full curve, poor fit] | –
11 | O=C(O)c1cccc(-c2ccc(/C=N/n3cnnc3)o2)c1 | inconclusive: 28.2 µM [inhibitor, single point] | –
13 | Nc1cc(S(=O)(=O)O)cc2cccc(S(=O)(=O)O)c12 | inconclusive: 5.62 µM [inhibitor, full curve, poor fit] | –
8 | Cc1nn(-c2ccccc2)c2c1C(c1ccco1)C(C#N)=C(N)O2 (stereo not given) | inconclusive: 100 µM [inhibitor, single point] | –
20 | N#C/C(=C(/O)CSc1n[nH]c(N)n1)c1nc2ccccc2[nH]1 | – | inactive: 0.115%
1 | N=C(N)c1ccc2cc(OC(=O)c3ccc(N=C(N)N)cc3)ccc2c1 | inconclusive: 7.69 µM [inhibitor, partial curve, poor fit] | –
18 | CCCn1nc(C)cc1CN(C)c1ccc(NS(=O)(=O)CC)cc1C(=O)O | inconclusive: 2.51 µM [inhibitor, full curve, poor fit] | –
21 | CCCN(Cc1ccc(F)cc1)C(=O)c1cnc(-c2ccc(C)cc2)[nH]c1=O | – | inactive: 43.5%
9 | NC(=O)C1(N2CCCCC2)CCN(CCCN2c3ccccc3CCc3ccc(Cl)cc32)CC1 | inconclusive: 14.4 µM [inhibitor, partial curve, poor fit] | –
2 | CC(=O)N1CCCc2cc(S(=O)(=O)N(C)CC(=O)Nc3ccc(Cl)cc3C)ccc21 | inconclusive: 28.2 µM [inhibitor, partial curve, poor fit] | –
10 | CC1Cc2c(nc(Cl)c(C#N)c2C#N)C([N+](=O)[O-])([N+](=O)[O-])C1 (stereo not given) | inconclusive: 0.398 µM [inhibitor, full curve] | –
19 | O=C(Nc1cccc(S(=O)(=O)NC2=NCCC2)c1)c1cc(-c2ccco2)nc2ccccc12 | inconclusive: 25.1 µM [inhibitor, full curve] | –
3 | Cc1cc(C)c(C)c(S(=O)(=O)N2CCC(C(=O)Nc3ccc(S(=O)(=O)N4CCOCC4)cc3)CC2)c1C | inconclusive: 89.1 µM [inhibitor, single point] | –

Remaining list, next part:

Row | SMILES | Potency | activity change, negative = inhibition
23 | O=C(CSc1nc2ccccc2n1Cc1ccccc1Cl)NCc1ccccc1 | inconclusive: 141 µM [inhibitor, partial curve, poor fit] | –
24 | N#Cc1ccc(CSc2nnc(-c3ccccc3)n2Cc2ccco2)cc1 | – | inactive: 2.53%
25 | CO[C@H]1C(=O)N(C2CCN(S(=O)(=O)c3ccc4c(c3)CCC4)CC2)[C@H]1c1ccncc1 | – | inactive: 44.2%
26 | COc1ccccc1CC(=O)N1CCN(c2cccc(C(F)(F)F)c2)CC1 | inconclusive: 44.7 µM [inhibitor, partial curve, poor fit] | –
27 | CC1CN(C(=O)c2ccccc2Sc2ccccc2C#N)CC(C)O1 (stereo not given) | inconclusive: 12.6 µM [inhibitor, partial curve, poor fit] | –
28 | COc1ccc(CN2CCOc3nc(-c4cc(F)cc(F)c4)ncc3C2=O)cc1 | inconclusive: 2.51 µM [inhibitor, full curve, poor fit] | –
29 | O=c1[nH]c(N2CCN(Cc3ccc4c(c3)OCO4)CC2)nc2c1CCCC2 | inconclusive: 141 µM [inhibitor, single point] | –
30 | O=C(CSc1ncnc2sc3c(c12)CCC3)Nc1cccc(F)c1 | – | inactive: 11.3%
31 | O=C1N/C(=N/N=C/c2ccc(F)cc2)SC1c1ccccc1 (stereo not given) | inconclusive: 100 µM [inhibitor, single point] | –
32 | Fc1ccc(F)c(-c2csc(NCc3ccco3)n2)c1 | inconclusive: 100 µM [inhibitor, partial curve, poor fit] | –
33 | CSCc1cccc(C(=O)O)c1 | – | inactive: -4.33%
34 | CC(=O)n1cc([C@H]2C=C(C(=O)NCc3ccccc3)O[C@@H](OCc3ccc(CO)cc3)C2)c2ccccc21 | – | inactive: -3.55%
35 | CCn1cc(S(=O)(=O)N2CCC(Cc3nncn3CC)C2)cn1 (stereo not given) | – | inactive: 37.2%
36 | CCOc1cc(/C=N/NC(=O)c2ccc(NC(=O)C3CC3)cc2)ccc1O | inconclusive: 126 µM [inhibitor, partial curve, poor fit] | –
37 | CCNc1ncc2nc(-c3cc(F)cc(F)c3)c(=O)n(CCc3ccccc3)c2n1 | active: 11.2 µM | –
38 | CC[C@]12C(=O)N(C)C[C@H]([C@@H]3C(=O)N(Cc4ccccc4)C(=O)[C@@H]31)N2C(=O)c1ccccc1 | inconclusive: 3.55 µM [inhibitor, full curve, poor fit] | –
39 | CC(C)c1nn2c(=O)cc(CSc3n[nH]c(-c4ccccc4F)n3)nc2s1 | inconclusive: 5.62 µM [inhibitor, full curve] | –
40 | COc1ccc(F)cc1S(=O)(=O)N1CCC2(CC1)OCCN2S(=O)(=O)c1ccccc1 | – | inactive: -8.55%
41 | CC(C)C1C(=O)N(Cc2cn(Cc3ccco3)nn2)CCS(=O)(=O)N1Cc1ccc(-c2ccc(F)nc2)cc1 (stereo not given) | inconclusive: 44.7 µM [inhibitor, partial curve, poor fit] | –
42 | O=C(C(Sc1nncn1-c1ccccc1)c1ccccc1)N1CCOCC1 (stereo not given) | – | inactive: 19%
43 | Cc1cc(=O)[nH]c(SCC(=O)NCc2ccco2)n1 | – | inactive: 3.45%
44 | Cc1cc([N+](=O)[O-])nn1CC(=O)N1N=C(C(F)F)CC1(O)C(F)F (stereo not given) | – | inactive: -4.15%

Row | SMILES | Potency | activity change, negative = inhibition
45 | NC(N)=NCCCC(NC(=O)c1ccccc1)C(=O)Nc1ccc2ccccc2c1 (stereo not given) | inconclusive: 44.7 µM [inhibitor, partial curve, poor fit] | –
46 | Cc1ccccc1OC1=NS(=O)(=O)c2ccccc21 | inconclusive: 35.5 µM [inhibitor, partial curve, poor fit] | –
47 | COc1cc2c(cc1OC)C(c1ccc(Cl)cc1)=NCC2 | inconclusive: 3.98 µM [inhibitor, full curve, poor fit] | –
48 | CCN1CCN(CCCNC(=O)c2ccc3c(c2)sc2nc(-c4ccc(OC)cc4)cn23)CC1 | inconclusive: 44.7 µM [inhibitor, partial curve] | –
49 | CN1CCC(N(C)C(=S)NC(=O)c2cc(-c3cccc(Br)c3)nc3ccccc23)CC1 | inconclusive: 22.4 µM [inhibitor, single point] | –
50 | CCNC(=O)NC(=O)CSc1nc2ccccc2n1CC(C)C | – | inactive: 0%
51 | O=C(CCO)c1ccc(O)cc1 | inconclusive: 44.7 µM [inhibitor, partial curve, poor fit] | –
52 | COc1cc(Cl)cc(C(c2c(C(=O)O)[nH]c3ccccc23)c2c(C(=O)O)[nH]c3ccccc23)c1O | active: 15.8 µM | –
53 | CCN(CC)S(=O)(=O)c1ccc(C)c(NC(=S)NC2CCCCC2)c1 | inconclusive: 56.2 µM [inhibitor, partial curve, poor fit] | –
54 | Cc1cc(C)n(CCc2nc(-c3cc4ccccc4o3)cs2)n1 | inconclusive: 15.8 µM [inhibitor, full curve, poor fit] | –
55 | Cc1ccc(NC(=S)Nc2cccc(-c3n[nH]c(=S)o3)c2)cc1 | – | inactive: 0%
56 | O=S(=O)(c1ccc(Cl)cc1)n1ccc2cccnc21 | inconclusive: 112 µM [inhibitor, partial curve, poor fit] | –
57 | CCc1nnc(NC(=O)CSc2nccn2-c2cc(C)cc(C)c2)s1 | inconclusive: 89.1 µM [inhibitor, partial curve, poor fit] | –
58 | O=C(NC1CCCC1)c1cc(C2CC2)nc2onc(C3CCCN3)c12 (stereo not given) | – | inactive: 1.89% [at 6.33 µM]
59 | N#C/C(=C\c1cccnc1)C(=O)Nc1cccc2ccccc12 | inconclusive: 44.7 µM [inhibitor, partial curve, poor fit] | –
60 | CCc1nc2ccccc2c(C(=O)OCC(=O)NCCc2ccccc2)c1C | inconclusive: 100 µM [inhibitor, partial curve, poor fit] | –
61 | CN(C)c1ccc(NS(=O)(=O)c2cccc(Cl)c2)cc1 | inconclusive: 50.1 µM [inhibitor, partial curve, poor fit] | –
62 | O=C1C(Cc2c[nH]c3ccccc23)NC(=S)N1C1CCCCC1 (stereo not given) | inconclusive: 50.1 µM [inhibitor, partial curve, poor fit] | –
63 | S=C(NCCCCN(Cc1ccc(Cl)cc1)c1ccc(Br)cn1)NCCCc1cnc[nH]1 | active: 35.5 µM | –
64 | Cn1c(=O)[nH]c(=O)c2c1nc(SCCO)n2CC(O)COc1ccccc1 (stereo not given) | inconclusive: 44.7 µM [inhibitor, partial curve, poor fit] | –
65 | COc1ccccc1-c1ncn(Cc2cccc(-c3ccccc3)c2)c1CC(C)C | inconclusive: 89.1 µM [inhibitor, single point] | –
